Data as given in paper doi:10.1101/2021.05.20.444955.
Changes are numbered by the printed parent chain. Results are given in words; binding and its absence hold for the method and conditions named. For some of these results: Binding seen in cells or lysates may run through a third protein. Some entries that bind do so weakly or less than the wild type. Tags and fused reporters may be left off the sequences shown. Each block holds one binder with its values, some of them ahead of it.

Key:
[1] = molecular target: T1, GST-tagged SPD-5(272–732_4A), without PLK-1 pretreatment (C. elegans) (UniProt P91349); test: pull-down
T1 sequence: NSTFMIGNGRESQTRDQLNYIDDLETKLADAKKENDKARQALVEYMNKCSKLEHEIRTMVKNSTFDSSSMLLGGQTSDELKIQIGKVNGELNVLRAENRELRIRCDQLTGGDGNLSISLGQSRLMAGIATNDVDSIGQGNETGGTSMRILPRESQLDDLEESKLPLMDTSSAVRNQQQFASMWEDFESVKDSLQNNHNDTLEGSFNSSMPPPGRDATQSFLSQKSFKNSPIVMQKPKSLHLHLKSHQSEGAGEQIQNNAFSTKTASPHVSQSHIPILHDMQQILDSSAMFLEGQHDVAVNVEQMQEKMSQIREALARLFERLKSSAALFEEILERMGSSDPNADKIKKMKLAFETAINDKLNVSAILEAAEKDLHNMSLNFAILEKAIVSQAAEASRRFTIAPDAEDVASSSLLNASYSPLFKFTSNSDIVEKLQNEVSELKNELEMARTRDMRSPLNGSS

[2] = molecular target: T2, SPD-5(272–732), yeast two-hybrid fusion (C. elegans) (UniProt P91349); test: two-hybrid
T2 sequence: T1 sequence with A259S, A356S, A382S, A387S

[3] = molecular target: T3, SPD-5(523–732), yeast two-hybrid fusion (C. elegans) (UniProt P91349); test: two-hybrid
T3 sequence: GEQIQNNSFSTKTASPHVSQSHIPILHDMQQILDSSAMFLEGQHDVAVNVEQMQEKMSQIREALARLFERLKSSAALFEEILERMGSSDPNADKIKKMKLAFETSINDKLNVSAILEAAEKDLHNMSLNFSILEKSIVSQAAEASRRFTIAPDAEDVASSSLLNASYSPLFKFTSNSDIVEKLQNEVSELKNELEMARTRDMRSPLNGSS

[4] = molecular target: T4, SPD-5(400–680), yeast two-hybrid fusion (C. elegans) (UniProt P91349); test: two-hybrid
T4 sequence: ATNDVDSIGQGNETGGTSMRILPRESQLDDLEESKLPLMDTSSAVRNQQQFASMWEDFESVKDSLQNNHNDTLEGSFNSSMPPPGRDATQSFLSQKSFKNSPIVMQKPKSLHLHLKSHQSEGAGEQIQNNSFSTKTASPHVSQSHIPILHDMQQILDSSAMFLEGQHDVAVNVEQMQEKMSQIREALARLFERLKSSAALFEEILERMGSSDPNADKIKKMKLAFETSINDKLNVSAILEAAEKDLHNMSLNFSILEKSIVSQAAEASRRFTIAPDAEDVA

[5] = molecular target: T5, SPD-5(272–680), yeast two-hybrid fusion (C. elegans) (UniProt P91349); test: two-hybrid
T5 sequence: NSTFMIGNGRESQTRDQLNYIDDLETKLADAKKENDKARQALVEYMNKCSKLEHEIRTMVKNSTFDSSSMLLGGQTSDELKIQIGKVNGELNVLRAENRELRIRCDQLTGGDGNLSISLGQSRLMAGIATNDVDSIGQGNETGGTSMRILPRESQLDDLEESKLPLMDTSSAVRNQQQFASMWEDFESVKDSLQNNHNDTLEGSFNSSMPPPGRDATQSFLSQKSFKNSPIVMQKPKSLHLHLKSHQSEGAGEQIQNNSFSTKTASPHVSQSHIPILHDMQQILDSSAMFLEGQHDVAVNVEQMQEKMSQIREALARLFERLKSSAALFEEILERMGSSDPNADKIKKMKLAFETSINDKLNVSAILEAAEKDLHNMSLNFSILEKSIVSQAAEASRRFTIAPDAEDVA

- binding [1]: binds weakly
B1: endogenous SPD-5 (protein, UniProt P91349 1-1198)
chain: MEDNSVLNEDSNLEHVEGQPRRSMSQPVLNVEGDKRTSSTSATQQQVLSGAFSSADVRSIPIIQTWEENKALKTKITILRGELQMYQRRYSEAKEASQKRVKEVMDDYVDLKLGQENVQEKMEQYKLMEEDLLAMQSRIETSEDNFARQMKEFEAQKHAMEERIKELELSATDANNTTVGSFRGTLDDILKKNDPDFTLTSGYEERKINDLEAKLLSEIDKVAELEDHIQQLRQELDDQSARLADSENVRAQLEAATGQGILGAAGNAMVPNSTFMIGNGRESQTRDQLNYIDDLETKLADAKKENDKARQALVEYMNKCSKLEHEIRTMVKNSTFDSSSMLLGGQTSDELKIQIGKVNGELNVLRAENRELRIRCDQLTGGDGNLSISLGQSRLMAGIATNDVDSIGQGNETGGTSMRILPRESQLDDLEESKLPLMDTSSAVRNQQQFASMWEDFESVKDSLQNNHNDTLEGSFNSSMPPPGRDATQSFLSQKSFKNSPIVMQKPKSLHLHLKSHQSEGAGEQIQNNSFSTKTASPHVSQSHIPILHDMQQILDSSAMFLEGQHDVAVNVEQMQEKMSQIREALARLFERLKSSAALFEEILERMGSSDPNADKIKKMKLAFETSINDKLNVSAILEAAEKDLHNMSLNFSILEKSIVSQAAEASRRFTIAPDAEDVASSSLLNASYSPLFKFTSNSDIVEKLQNEVSELKNELEMARTRDMRSPLNGSSGRLSDVQINTNRMFEDLEVSEATLQKAKEENSTLKSQFAELEANLHQVNSKLGEVRCELNEALARVDGEQETRVKAENALEEARQLISSLKHEENELKKTITDMGMRLNEAKKSDEFLKSELSTALEEEKKSQNLADELSEELNGWRMRTKEAENKVEHASSEKSEMLERIVHLETEMEKLSTSEIAADYCSTKMTERKKEIELAKYREDFENAAIVGLERISKEISELTKKTLKAKIIPSNISSIQLVCDELCRRLSREREQQHEYAKVMRDVNEKIEKLQLEKDALEHELKMMSSNNENVPPVGTSVSGMPTKTSNQKCAQPHYTSPTRQLLHESTMAVDAIVQKLKKTHNMSGMGPELKETIGNVINESRVLRDFLHQKLILFKGIDMSNWKNETVDQLITDLGQLHQDNLMLEEQIKKYKKELKLTKSAIPTLGVEFQDRIKTEIGKIATDMGGAVKEIRKK

- binding [2]: binds
B2: SPD-5(C1), aa 927–1198, yeast two-hybrid fusion (domain or fragment, UniProt P91349 927-1198)
chain: MTERKKEIELAKYREDFENAAIVGLERISKEISELTKKTLKAKIIPSNISSIQLVCDELCRRLSREREQQHEYAKVMRDVNEKIEKLQLEKDALEHELKMMSSNNENVPPVGTSVSGMPTKTSNQKCAQPHYTSPTRQLLHESTMAVDAIVQKLKKTHNMSGMGPELKETIGNVINESRVLRDFLHQKLILFKGIDMSNWKNETVDQLITDLGQLHQDNLMLEEQIKKYKKELKLTKSAIPTLGVEFQDRIKTEIGKIATDMGGAVKEIRKK

- binding [2]: binds
- binding [3]: no binding
- binding [4]: no binding
- binding [5]: no binding
B3: SPD-5(C2), aa 1061–1198, yeast two-hybrid fusion (domain or fragment, UniProt P91349 1061-1198)
chain: PTRQLLHESTMAVDAIVQKLKKTHNMSGMGPELKETIGNVINESRVLRDFLHQKLILFKGIDMSNWKNETVDQLITDLGQLHQDNLMLEEQIKKYKKELKLTKSAIPTLGVEFQDRIKTEIGKIATDMGGAVKEIRKK

- binding [1]: binds weakly
B4: GFP::SPD-5(C2), from C. elegans egg lysate (domain or fragment, UniProt P91349 1061-1198)
chain: B3 chain
